For this assay, the target named is T1, Guanosine triphosphate cyclohydrolase 1 (human (endogenous in HUVECs)) (UniProt P30793).
T1 sequence: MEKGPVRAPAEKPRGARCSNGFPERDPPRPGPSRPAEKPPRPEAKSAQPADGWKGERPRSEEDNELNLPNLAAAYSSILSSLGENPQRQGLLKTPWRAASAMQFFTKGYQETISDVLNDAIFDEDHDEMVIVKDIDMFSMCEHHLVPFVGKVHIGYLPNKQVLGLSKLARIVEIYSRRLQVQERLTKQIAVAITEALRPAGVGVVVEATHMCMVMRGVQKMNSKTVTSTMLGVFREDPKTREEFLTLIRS
The experiment in a line: co-IP; endogenous proteins in HUVEC lysate (Triton X-100 buffer); primary antibodies overnight at 4°C, MG132, Protein G Plus/Protein A-agarose beads 2 h at 4°C; reciprocal coIP, western blot. For orientation: A western blot detects proteins with antibodies after separation by electrophoresis.

Amino acid sequences for entries named in this document (tags omitted).
UniProt Q9HAU4: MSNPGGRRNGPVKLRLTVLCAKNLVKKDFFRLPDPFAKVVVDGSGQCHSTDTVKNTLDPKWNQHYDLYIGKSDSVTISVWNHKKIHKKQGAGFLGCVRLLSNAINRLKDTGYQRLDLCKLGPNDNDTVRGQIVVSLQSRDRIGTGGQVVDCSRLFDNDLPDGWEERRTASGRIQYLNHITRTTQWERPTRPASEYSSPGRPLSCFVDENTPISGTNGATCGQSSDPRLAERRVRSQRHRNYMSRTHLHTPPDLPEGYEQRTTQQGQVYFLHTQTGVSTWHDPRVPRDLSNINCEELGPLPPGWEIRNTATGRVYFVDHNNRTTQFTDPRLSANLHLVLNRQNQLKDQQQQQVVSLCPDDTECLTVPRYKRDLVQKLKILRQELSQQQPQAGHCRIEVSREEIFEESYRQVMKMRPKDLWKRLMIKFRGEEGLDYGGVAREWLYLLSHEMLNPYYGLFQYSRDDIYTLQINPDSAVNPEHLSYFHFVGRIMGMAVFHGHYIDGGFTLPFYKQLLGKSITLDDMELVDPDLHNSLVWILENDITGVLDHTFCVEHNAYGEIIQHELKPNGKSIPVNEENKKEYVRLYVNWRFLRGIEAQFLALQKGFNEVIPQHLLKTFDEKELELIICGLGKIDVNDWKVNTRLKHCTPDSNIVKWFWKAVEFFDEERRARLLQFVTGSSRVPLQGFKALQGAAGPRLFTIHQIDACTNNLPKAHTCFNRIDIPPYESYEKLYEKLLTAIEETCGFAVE

No constants are given. Whether binding was seen depends on the method and setting. Binding seen in cells or lysates may run through a third protein. Some binding calls cover weakened binding; strength is not graded here.

“Smad-ubiquitination regulatory factor 2 (from UniProt Q9HAU4 1-748) (enzyme)”: the binding entry was “binds”.

(Values after publication PMC11322867.)
